Values quoted from earlier work, collected in patent US8026229B2, “Antitumor-active 2-alkoxyestradiol sulfamates” (Sterix Limited, priority 2001, dated 2011).
Some entries share one result that the patent states for a list of compounds. Some compounds share one range, which may span the group rather than tell each member.

System: MCF-7 breast cancer cells
Conditions: at 10 μM, MCF-7 cells; cited from earlier work

COc1cc2c(cc1OS(N)(=O)=O)CCC1C2CC[C@]2(C)C(=O)CCC12 (stereo partly shown) [2-Methoxyestrone-3-sulfamate]
Inhibition of the absorption of glucose: 25 to 49%
